Measurements reported in US20100120894A1.
These are yes or no findings as the source states them, for the method shown. For some of these results: In cells and extracts the contact can be indirect. Some results given as binding are weak or reduced against the parent protein; the word gives no strength. Tags and fused reporters may be left off the sequences shown.

The chains behind the UniProt entries cited, without tags or fusion partners.
UniProt Q9ULZ3: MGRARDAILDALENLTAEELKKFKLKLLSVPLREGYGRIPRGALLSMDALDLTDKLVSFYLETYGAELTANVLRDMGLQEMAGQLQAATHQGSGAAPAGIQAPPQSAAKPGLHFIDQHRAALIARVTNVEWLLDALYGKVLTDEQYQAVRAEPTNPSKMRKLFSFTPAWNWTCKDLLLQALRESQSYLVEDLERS

Experiments:
[1] = target: ASC-YFP stably expressed in HEK293 cells (UniProt Q9ULZ3); assay: confocal microscopy, co-aggregation in HEK293-ASC-YFP cells
[2] = target: HA-tagged ASC (human) (UniProt Q9ULZ3); assay: epifluorescence microscopy, cluster formation of PYD-CFP in 293T cells with increasing ASC-HA
[3] = target: HA-tagged ASC (human) (UniProt Q9ULZ3); assay: co-immunoprecipitation with anti-HA beads from 293T cells, immunoblot with anti-CFP
[4] = target: ASC-YFP stably expressed in HEK293 cells (UniProt Q9ULZ3); assay: figure title: confocal co-localisation with ASC-YFP and co-immunoprecipitation

- binding [1]: binds
- binding [2]: binds
- binding [3]: binds
- binding [4]: binds
B1: AIM2-PYD (1-83) C-terminally tagged with CFP (protein, human, UniProt O14862 1-83, looked up, not shown: large carriers)
chain: MESKYKEILLLTGLDNITDEELDRFKFFLSDEFNIATGKLHTANRIQVATLMIQNAGAVSAVMKTIRIFQKLNYMLLAKRLQE
